Out of some 52,000 sequences screened, about 210 (0.4%) were called active.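 Rule for the calls: active = gene whose silencing raises cell survival under the drug, median off-target-corrected z-score across its silencing RNAs 2 or more; inactive = the rest.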 The list shows a part of the results.

The experiment in a line: Resistance to Poly (ADP-Ribose) Polymerase inhibitor: Gene Identification via Genome-wide siRNA Screen. To be noted: mouse BRCA2 R2336H ES cells, olaparib, CellTiter-Glo viability; hits give high values. The gist of the method: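 Genome-wide siRNA screen (3 siRNAs/gene, 20 nM) in mouse ES cells carrying hypomorphic BRCA2 R2336H; olaparib 500 nM added 48 h post-transfection, CellTiter-Glo viability 72 h later. Normalized to plate-median negative control; MAD z-scores, gene median, seed-adjusted.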
Background: ATP-based viability assays read luminescence as a measure of living cells.
“GCCUUAGGACGAGAGAAUATT against 4921530L21Rik”: the z-score is inactive: -0.0354.

Consider CCUAAGUACUGUAAGAAUATT against Nmyc1, for which the z-score is inactive: -0.0472. In the case of GGAUUCACACAAUGGCAAGTT against Rpl39 it was inactive: -1.88. In the case of “GGGAUGUGUCUAAUGACUCTT against A830058L05” it was inactive: -1.02; in that of “GGACGUGACCAUGAUGUCUTT against 5330437I02Rik”, inactive: -1.31; in that of GUGGCAGCUGACAUGAAUGTT against Plac8, inactive: -0.198. For “GGUCAAUUCAAGAUUGAUUTT against 2900006F19Rik” the value was inactive: -0.106; for GGCUGAAAUCUCAAUGGCUTT against BC037594, inactive: 1.46; for “UUGACAGCUGGUAGACACUTT against 2210021J22Rik”, inactive: -0.867. For the sequence GGCCGGAUUGUCUAUAUUUTT against Per1, the z-score was inactive: -1.24. For GGCACUCAGGAAAAAAAAGTT against Clstn3 the value was inactive: -0.0339. Consider CGGAGCUAAUAUUUUAUGCTT against Mospd1, for which the z-score was inactive: -0.812. Consider GCCUUGAGUGCAUUAAUUUTT against Ube2r2, for which the z-score was inactive: -0.418. For GGAAGAGAAAGUAAAGAAGTT against Hcph the value was inactive: 1.13. In the case of GGAAUACUCUUAAAUGACUTT against Zfp455, the z-score was inactive: -0.918. For GCCUGUACUUUCGACUUCUTT against Fpr1 the value was inactive: -1.02; for GGAGAGCUGUUUGACUACATT against Melk, inactive: -0.685; for CCUUUUCAUAUGGUACUCCTT against Ranbp6, inactive: 0.286. For “CGGACCUAUGCAAGAAGAUTT against 2310020A21Rik” the value was inactive: -2.11; for “GGACAAGUUUACAAUGCAATT against 4930465K10Rik”, inactive: 0.562. In the case of “CCGGAUGUGCCUUGUCUACTT against 4930432B04Rik” it was inactive: -2.68; in that of GGAAAUUAUCUGCUUCUCATT against Dqx1, inactive: -1.05; in that of GGUUGUGAAACAGCAAUUCTT against Ptx3, inactive: -0.099. Turning to GCAUCAAUUCCCAAACCUUTT against LOC280621, the z-score was inactive: 1.12.

CGAGGUCUAUAACAUGACCTT against Smox: the z-score is inactive: 1.66. In the case of CCGGGAAGUGGAUAAUUUUTT against Olfr1368 it was inactive: 0.0282; in that of “GGAACAUUUCACCUUUUAGTT against 1110002B05Rik”, inactive: 1.79; in that of GGUGUAGAGAUUCACAGGUTT against Foxd1, inactive: 0.985. GGAGUUUGUCUUCUCUUUCTT against Foxf1a: the z-score was inactive: -0.805.

With “CCGACGUGCAUGGAGAAAATT against 1700030J22Rik”, the z-score is inactive: -1.71. In the case of GGAUCAAAAAAAAACUGGATT against Tera it was inactive: -2.07; in that of GGAAUUCAGUUUUACCUGUTT against Slc6a13, inactive: 0.422; in that of CCGGUCCUCUCAGAAAUUATT against Asz1, inactive: 1.05. In the case of CGCAUCGACAGCUAUGUCATT against Rhbdf1 it was inactive: 1.64; in that of GGAUCUACUACCUGUCUUUTT against Pygm, inactive: -0.175; in that of GCUUCUACCAAUGUUUAUCTT against Slc5a3, inactive: 0.61.

“CCAUAGUUUUGGUUACCAATT against E330037G11Rik”: the z-score was inactive: 0.795. In the case of GGCAGAGAAUCAGCUCCUUTT against Il16 it was inactive: -2.31; in that of GGAUCUUCUACACAGUAAATT against Ppp2r3a, inactive: 0.38; in that of GGAGGACGUGAACUUUGACTT against Stk32c, inactive: 0.642. Turning to GCAUUCUACAACGAUCCCUTT against Hdac5, the z-score was inactive: -0.67. For GGCCAUUGAGCUCAACCCUTT against Sgta the value was inactive: 0.429; for CGACCUUAAGCUAAGCAGUTT against Laf4, inactive: -0.43; for GCCGAAUUGGACAAGUCUATT against Plxnd1, inactive: -1.18.

Regarding GGAAUUCAGGAUAUAAGGATT against Fut7, the z-score was inactive: -0.415. Turning to GGUCCAAUUAACCUAUCUUTT against AW555814, the z-score is inactive: -2.08.

In the case of “GCAGGAGCUGAAGCAAAGATT against 2410005K17Rik”, the z-score is inactive: -1.87.

As for “CCGUCUAUACAUCUUUCCATT against D630005B22Rik”, the z-score is inactive: -1.51. GAACCUUCUGCUUUGAUGCTT against Olfr641: the z-score is inactive: 0.824. In the case of “CCACACUAGAAUGAACAUATT against 3830417A13Rik” it was inactive: -2.63; in that of GGUGAACAUGUUUACAAACTT against Btf3, inactive: -0.466; in that of GGUCAGAUACAAUGUAUAUTT against Ap1s3, inactive: -0.387. In the case of CCUCUCUGUACAGUCAACCTT against Fndc6, the z-score is inactive: -0.404. In the case of “GGUUUACUGGUAAUUUUCATT against 2610318I01Rik” it was inactive: -0.282; in that of GGACGAGUCACACUUUGGATT against Cdyl2, inactive: 0.249; in that of GGAUUUCGUCGAAAAGAAUTT against Mical3, inactive: -1.34. For GGACCUAAGCAUUUUACAUTT against Traf2 the value was inactive: 0.224; for GGUAGCCAAUGGGAAAAAATT against Cnot6l, inactive: 1.72.

With GGAAUUGAAACACAUCUCUTT against Sntb1, the z-score is inactive: 0.706. Turning to GGUCCUCCAAAAAAAGCAATT against Prlpi, the z-score is inactive: 0.645. For CCACGAGAACCUCAAGGGUTT against Ckm the value was inactive: 0.587. In the case of GCGAAGCUAUGGAGACAUGTT against Trib2 it was inactive: 0.293; in that of “GGUCACCUCUCCAUCUAGATT against D430014M15”, inactive: -0.253. In the case of GGACUUGAAAAUUGUUCUUTT against Lass5 it was inactive: -1.43; in that of “CCUAAUAAGCCAUAUGCAUTT against 4930562C03Rik”, inactive: 1.1. With GGAGGUGGUGCUUAAAGGUTT against Rnf122, the z-score was inactive: 0.511. Take GGCCCAUUACUUGUUGACUTT against BC025462: the z-score is inactive: -1.67.

Turning to GGCCUUUUGCCAUUGACAUTT against B3gat2, the z-score was inactive: 0.687. In the case of GGAGUGGAAGUUCAAAGAGTT against Anapc11 it was inactive: 0.578; in that of GGUGAUAUAGCUAUUUUCUTT against Fbxw11, inactive: 0.952; in that of GGACCUUCCAGCAAGAUUUTT against Rnf13, inactive: -0.477. Take GGGUUCUUUCACUGAACGATT against AW539964: the z-score is inactive: -0.585. Take “CCAAGACAAGAGCGAUUAATT against 1110019O13Rik”: the z-score was inactive: 0.116. In the case of GCAUCUACCAUGGAAAUAUTT against Clcn7 it was inactive: -0.72; in that of GGAACUAGCCGUGAUGAUGTT against Htr1f, inactive: -1.28; in that of GGUUUCUUCUAAGAACAAATT against Astl, inactive: 1.09. For GGCCAUUACUCUGAUUCAUTT against Phyhipl the value was inactive: 0.889; for “CGUACAAUCAUGUGUAAUGTT against 1110059E24Rik”, inactive: 0.92; for CCUGGAAUACAAGACAUGATT against BC065151, inactive: -0.999. In the case of GGCACGAGCUCUCAUCUUUTT against Slc27a4 it was inactive: -0.181; in that of “CGACGACGAGUUUCUCCAUTT against 1810026J23Rik”, inactive: -1.77; in that of GGACAGCUAUUUGUUUUACTT against Azi2, inactive: 1.81.

Consider GCAUGUGCCUGACUGGGUUTT against D5Wsu178e, for which the z-score was inactive: -1.46.

As for GGUGACUUCGGAGAAAAGGTT against Sncaip, the z-score was inactive: -0.0664. For GGGACAAAGGCUCAACAUATT against AL024069 the value was inactive: -0.231; for GCAAGAGACCUUGUUAUAGTT against BC003236, inactive: -0.871. As for GGCUAGAAAGGGUCUCAAATT against Cyp3a25, the z-score is inactive: 0.0689. In the case of GGGCAGAAACAAAAGGUUATT against Tmlhe it was inactive: 1.08; in that of GGCAGCAGUAAAGAAAAAGTT against Jtv1, inactive: 0.273; in that of GGAACUCCAAACCAGAUACTT against Gemin7, inactive: -0.753. In the case of GGAAAGGAUAAAGUAUAUCTT against Calmbp1, the z-score is inactive: 0.278.

For the sequence GGAGGGCAAGAUAGAUGAGTT against Tnfrsf6, the z-score was inactive: 1.22. In the case of “UAGGUUCAUUAUGGUGCCATT against D530030D03Rik” it was inactive: 1.03; in that of GGUACAAUACAUUCAAACATT against Serpinb6c, inactive: 0.531; in that of “GGAUGUCACUGAAAUUGCCTT against 4930500E24Rik”, inactive: 0.406.

Turning to GGAAACCAGGAAUGUUAAUTT against Mrps2, the z-score was inactive: -0.308.

In the case of GGCAAAAGUACUGAUCACATT against Pcdhga7, the z-score was inactive: -0.168. In the case of GGAUUUCAAUGAAACUCAGTT against Antxr1 it was inactive: -0.142; in that of GGACUUGUGGCUGAAAACCTT against Slc22a7, inactive: 0.176; in that of CGACAAUGUGCCGAUGUUGTT against Pcdha8, inactive: -1.57. GGAAUGUGUUAAAAGCACUTT against Fign: the z-score was inactive: 0.647. In the case of GGGUGCAGUGUUGUUUAUATT against 7-Sep it was inactive: 1.51; in that of GCCGCAUCCACACAUCUCUTT against Daam2, inactive: 0.684. In the case of GGUUGUCACAACAACAAUGTT against Oit3 it was inactive: 0.426.
